Values of other authors in patent publication US6147077A, “2R,4S-hydroxyitraconazole isomers” (priority 1999, dated 2000).
At least one read-out could not be matched to a standard name with certainty.

Conditions: daily oral administration; cited from earlier work

SMILES: CCC(C)n1ncn(-c2ccc(N3CCN(c4ccc(OC[C@H]5CO[C@](Cn6cncn6)(c6ccc(Cl)cc6Cl)O5)cc4)CC3)cc2)c1=O (relative stereo) [itraconazole, 4-[4-[4-[4-[[2-(2,4-dichlorophenyl)-2-(1H-1,2,4-triazol-1-ylmethyl)-1,3-dioxolan-4-yl]methoxy]phenyl]-1-piperazinyl]phenyl]-2,4-dihydro-2-(1-methylpropyl)-3H-1,2,4-triazol-3-one]
- Peak plasma level attainment: 15 days
